Test results taken from publication PMC5996148.
The list shows a part of the results. For some of these results: The exact form of the protein is not confirmed.

Columns and labels:
Experiment in all cases: protein microarray (ProtoArray v5.0), streptavidin-Alexa Fluor 647
Details in all cases: 3'-biotin; 20 mM Tris (pH 7.5), 5 mM MgCl2, 100 mM KCl, 0.1% Tween-20, A/T-rich and random oligonucleotide blockers; temperature not stated; high values mean tight binding
[1] = system: KCNK7 (human)
[2] = system: KCNN3 (human)
[3] = biological target: T1, KCNRG (UniProt Q8N5I3)
T1 sequence: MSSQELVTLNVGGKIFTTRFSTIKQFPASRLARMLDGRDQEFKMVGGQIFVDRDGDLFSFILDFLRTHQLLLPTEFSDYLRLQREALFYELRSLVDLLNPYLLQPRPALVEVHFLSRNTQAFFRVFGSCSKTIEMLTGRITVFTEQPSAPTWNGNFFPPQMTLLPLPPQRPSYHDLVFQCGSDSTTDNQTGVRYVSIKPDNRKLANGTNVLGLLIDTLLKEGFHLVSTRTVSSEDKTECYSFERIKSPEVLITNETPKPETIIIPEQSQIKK

[4] = system: KCNS2 (human)
[5] = system: KCTD10 (human)
[6] = system: KCTD7 (human)
[7] = system: KEL (human)
[8] = system: KHK (human)
[9] = system: KIAA0157 (human)
[10] = system: KIAA0174 (human)

## GGGAGGCTGAGGCAGG [G4-1 biotinylated (PQS2)]
[1]
  binding signal: -0.331 z-score
[2]
  binding signal: -0.274 z-score
[3]
  binding signal: -0.325 z-score
[4]
  binding signal: -0.346 z-score
[5]
  binding signal: -0.29 z-score
[6]
  binding signal: -0.279 z-score
[7]
  binding signal: -0.28 z-score
[8]
  binding signal: -0.353 z-score
[9]
  binding signal: -0.296 z-score
[10]
  binding signal: -0.344 z-score
